Data source: PubChem BioAssay AID504764 (Drosophila RNAi Screening Center, 2011)
In all, the deposit lists about 22,000 reagents; shown is an unselected part of those that have a named target and a result. Of all reagents, 403 (1.9%) were called active. 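Unnormalised raw counts per well; ratio z-scores behind the hit calls and whether each hit raises or lowers signal are not deposited.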 Not stated in the record: the amount of reagent.

- Aim: 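Genome-wide screen for regulators of Notch-driven gene expression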 (primary screen)
- Cell system: Drosophila Kc167 cells
- Reagent: long dsRNA against Drosophila genes
- Duration: about 5 days (4 days dsRNA, then 24 h after transfection)
- Treatment: transfection of constitutively active membrane-tethered Notch lacking the extracellular domain, read 24 h later
- Measurement: 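Light from a Notch-responsive E(spl)m3 luciferase reporter under active Notch, with control-promoter and no-Notch reporter wells to normalise; raw counts from paired wells a and b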
- Direction: induced reporter light, run 1, well a and induced reporter light, run 1, well b: higher = more light from the Notch target reporter with active Notch; control promoter light, run 1, well a and control promoter light, run 1, well b: higher = more light from the viral control promoter (cell number, transfection, viability); uninduced reporter light, run 1, well a: higher = more light from the Notch target reporter without active Notch
- Call rule: 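Wells with low control signal or poorly matching duplicates excluded; duplicates averaged; per source plate, z beyond ±2 for induced/control log2 ratio or beyond ±1.8 for induced/uninduced marks a hit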
- Calls: active = modifier hit (raised or lowered Notch signal); inactive = not a hit

{"Gene": "c12.2", "DRSC id": "DRSC18751", "induced reporter light, run 1, well a": 1.07e5, "induced reporter light, run 1, well b": 1.06e5, "control promoter light, run 1, well a": 1.70e5, "control promoter light, run 1, well b": 1.72e5, "uninduced reporter light, run 1, well a": 7615, "outcome": "inactive"}
{"Gene": "Prx3", "DRSC id": "DRSC15883", "induced reporter light, run 1, well a": 1.19e5, "induced reporter light, run 1, well b": 1.51e5, "control promoter light, run 1, well a": 1.37e5, "control promoter light, run 1, well b": 1.65e5, "uninduced reporter light, run 1, well a": 14730, "outcome": "inactive"}
{"Gene": "CG2767", "DRSC id": "DRSC15451", "induced reporter light, run 1, well a": 1.66e5, "induced reporter light, run 1, well b": 1.35e5, "control promoter light, run 1, well a": 1.15e5, "control promoter light, run 1, well b": 88045, "uninduced reporter light, run 1, well a": 9410, "outcome": "inactive"}
{"Gene": "Rpn7", "DRSC id": "DRSC16841", "induced reporter light, run 1, well a": 9860, "induced reporter light, run 1, well b": 9645, "control promoter light, run 1, well a": 9970, "control promoter light, run 1, well b": 10795, "uninduced reporter light, run 1, well a": 950, "outcome": "inactive"}
{"Gene": "brv1", "DRSC id": "DRSC11076", "induced reporter light, run 1, well a": 1.38e5, "induced reporter light, run 1, well b": 1.14e5, "control promoter light, run 1, well a": 1.12e5, "control promoter light, run 1, well b": 1.21e5, "uninduced reporter light, run 1, well a": 10225, "outcome": "inactive"}
{"Gene": "syd", "DRSC id": "DRSC10963", "induced reporter light, run 1, well a": 1.22e5, "induced reporter light, run 1, well b": 1.05e5, "control promoter light, run 1, well a": 67540, "control promoter light, run 1, well b": 31035, "uninduced reporter light, run 1, well a": 9720, "outcome": "inactive"}
{"Gene": "CG42450", "DRSC id": "DRSC20022", "induced reporter light, run 1, well a": 83955, "induced reporter light, run 1, well b": 96790, "control promoter light, run 1, well a": 99505, "control promoter light, run 1, well b": 1.13e5, "uninduced reporter light, run 1, well a": 9160, "outcome": "inactive"}
{"Gene": "shams", "DRSC id": "DRSC16590", "induced reporter light, run 1, well a": 1.71e5, "induced reporter light, run 1, well b": 1.65e5, "control promoter light, run 1, well a": 1.89e5, "control promoter light, run 1, well b": 2.27e5, "uninduced reporter light, run 1, well a": 14240, "outcome": "inactive"}
{"Gene": "su(Hw)", "DRSC id": "DRSC17074", "induced reporter light, run 1, well a": 1.22e5, "induced reporter light, run 1, well b": 1.17e5, "control promoter light, run 1, well a": 80035, "control promoter light, run 1, well b": 88045, "uninduced reporter light, run 1, well a": 11100, "outcome": "inactive"}
{"Gene": "Ptp61F", "DRSC id": "DRSC08683", "induced reporter light, run 1, well a": 1.32e5, "induced reporter light, run 1, well b": 1.42e5, "control promoter light, run 1, well a": 2.58e5, "control promoter light, run 1, well b": 2.58e5, "uninduced reporter light, run 1, well a": 8442, "outcome": "inactive"}
{"Gene": "CG42266", "DRSC id": "DRSC21957", "outcome": "active"}
{"Gene": "Gen", "DRSC id": "DRSC09679", "induced reporter light, run 1, well a": 1.16e5, "induced reporter light, run 1, well b": 1.15e5, "control promoter light, run 1, well a": 74935, "control promoter light, run 1, well b": 46700, "uninduced reporter light, run 1, well a": 11092, "outcome": "inactive"}
